# Assay results published in the supplement of paper PMC4604168 (melanoma cell lines).
# Some of the results follow. Repeats are few or missing, and single values can be far off.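 The apoptosis fraction was the count of cleaved-PARP antibody-stained nuclei relative to all DNA-stained nuclei, imaged in 1,536-well plates. Screening doses were set so most cells survived, and baseline and induced cleaved-PARP levels vary greatly across cell lines.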
# Assays:
# Assay in all cases: cleaved PARP positive nuclei fraction relative to DMSO control; melanoma cells; higher = more apoptosis
# Conditions in all cases: library dose: low library concentration; 72 h
# MZ2-MEL = system: MZ2-MEL
# MeWo = system: MeWo
# RPMI7951 = system: RPMI7951
# RVH-421 = system: RVH-421
# SkMel28 = system: SkMel28
# SkMel30 = system: SkMel30
# SkMel5 = system: SkMel5
# UACC257 = system: UACC257
# UACC62 = system: UACC62
# WM115 = system: WM115
# WM1716 = system: WM1716
# WM1745 = system: WM1745
# WM3526 = system: WM3526
# WM3619 = system: WM3619
# WM451Lu = system: WM451Lu
SMILES,cleaved PARP positive nuclei fraction (MZ2-MEL) [%],cleaved PARP positive nuclei fraction (MeWo) [%],cleaved PARP positive nuclei fraction (RPMI7951) [%],cleaved PARP positive nuclei fraction (RVH-421) [%],cleaved PARP positive nuclei fraction (SkMel28) [%],cleaved PARP positive nuclei fraction (SkMel30) [%],cleaved PARP positive nuclei fraction (SkMel5) [%],cleaved PARP positive nuclei fraction (UACC257) [%],cleaved PARP positive nuclei fraction (UACC62) [%],cleaved PARP positive nuclei fraction (WM115) [%],cleaved PARP positive nuclei fraction (WM1716) [%],cleaved PARP positive nuclei fraction (WM1745) [%],cleaved PARP positive nuclei fraction (WM3526) [%],cleaved PARP positive nuclei fraction (WM3619) [%],cleaved PARP positive nuclei fraction (WM451Lu) [%]
"COc1cc(Nc2ncc(F)c(Nc3ccc4c(n3)NC(=O)C(C)(C)O4)n2)cc(OC)c1OC [Tamatinib] + O=C(Nc1ccccc1)c1cc([N+](=O)[O-])ccc1Cl [GW9662] (first compound 0.4 µM, partner dose 2 µM)",177,109,83.7,60.5,292,39.8,168,215,82.7,178,191,185,353,217,55.9
"O=C(CCCCCCC(=O)Nc1ccccc1)NO [vorinostat] + COc1cc2ncnc(Nc3ccc(Oc4ccccc4)cc3)c2cc1OC [SrcI1] (first compound 0.08 µM, partner dose 2 µM)",124,111,37.7,102,114,123,58.3,146,342,45.9,156,98.4,69.6,80,28.6
"Cn1cncc1[C@@](N)(c1ccc(Cl)cc1)c1ccc2c(c1)c(-c1cccc(Cl)c1)cc(=O)n2C [tipifarnib] + CC(C)CCN1c2nc(Nc3cc(F)c(O)c(F)c3)ncc2N(C)C(=O)C1C [BID1870] (first compound 0.01 µM, partner dose 0.2 µM)",89.8,198,25.5,45.4,103,136,25.4,110,252,171,74.4,108,154,96,62.7
"Cn1nnc2c(C(N)=O)ncn2c1=O [temozolomide] + Cn1cc(/C=C2\C(=O)Nc3cccnc32)c2ccccc21 [GW441756] (first compound 2 µM, partner dose 0.4 µM)",51.1,48.7,84.2,212,154,68.4,143,131,103,384,56.4,132,69.6,293,325
"C[C@@H]1CCN(C(=O)CC#N)C[C@@H]1N(C)c1ncnc2[nH]ccc12 + COc1ccc(-c2ccc3c(N4CCOCC4)nc(N4C[C@@H](C)O[C@@H](C)C4)nc3n2)cc1CO [KU0063794] (first compound 1 µM, partner dose 0.02 µM)",96.7,61.1,90,62.8,161,85.6,29.9,206,123,73.2,102,116,73.2,72,283
"Cn1c(Nc2ccc(C(F)(F)F)cc2)nc2cc(Oc3ccnc(-c4ncc(C(F)(F)F)[nH]4)c3)ccc21 + COc1ccc(-c2ccc3c(N4CCOCC4)nc(N4C[C@@H](C)O[C@@H](C)C4)nc3n2)cc1CO [KU0063794] (first compound 0.08 µM, partner dose 0.02 µM)",267,75.9,70,105,193,54.2,53.6,636,122,1030,215,170,309,150,228
"C#Cc1cccc(Nc2ncnc3cc(OCCOC)c(OCCOC)cc23)c1 [erlotinib] + c1cc(-c2cnn3cc(-c4ccc(OCCN5CCCCC5)cc4)cnc23)ccn1 [Dorsomorphin] (first compound 0.8 µM, partner dose 0.4 µM)",87.4,37.1,253,98,104,29.5,32.1,221,183,202,174,125,154,94.7,79.1
"OCCn1cc(-c2cnc3nnn(Cc4ccc5ncccc5c4)c3n2)cn1 + O=c1cc(-c2cccc3c2Sc2ccccc2S3)oc(N2CCOCC2)c1 [KU55933] (first compound 1 µM, partner dose 1 µM)",81.6,84,169,94.4,77.3,164,241,61,150,66.2,115,106,153,186,81.5
"C#Cc1cccc(Nc2ncnc3cc(OCCOC)c(OCCOC)cc23)c1 [erlotinib] + N#Cc1c(O)c2c(-c3ccc(-c4ccccc4O)cc3)csc2[nH]c1=O [A769662] (first compound 0.8 µM, partner dose 2 µM)",331,56.3,75.9,52.7,137,208,26.9,106,134,75.8,69.2,112,34.9,66.7,37.3
"C[C@@H]1CCN(C(=O)CC#N)C[C@@H]1N(C)c1ncnc2[nH]ccc12 + CCCCCCCCCCCC1=C(O)C(=O)C=C(O)C1=O [Embelin] (first compound 1 µM, partner dose 1.2 µM)",85.7,154,64.4,22.3,130,53.1,29.7,83.3,25.4,76.4,79.4,91.3,64,79.8,135
"Cc1nc(Nc2ncc(C(=O)Nc3c(C)cccc3Cl)s2)cc(N2CCN(CCO)CC2)n1 [dasatanib] + Oc1cc(-c2nc(-c3ccccc3)[nH]c2-c2ccncc2)ccc1Cl [L779450] (first compound 0.004 µM, partner dose 0.2 µM)",98.9,26.6,52.6,73.9,179,42.9,63.4,187,109,161,157,146,91.4,81.1,43.3
"Cc1ccc(NC(=O)c2cccc(N(C)C)c2)cc1NC(=O)c1ccc(O)cc1 + CCN(CC)CCCCNc1ncc2cc(-c3cc(OC)cc(OC)c3)c(NC(=O)NC(C)(C)C)nc2n1 [PD173074] (first compound 2 µM, partner dose 0.1 µM)",135,56.3,109,65.1,128,440,27.8,136,129,144,127,111,64.5,77.8,85.9
"Nc1cccc2c1CN(C1CCC(=O)NC1=O)C2=O (stereo not given) [lenalidomide] + CCN(CC)CCCCNc1ncc2cc(-c3cc(OC)cc(OC)c3)c(NC(=O)NC(C)(C)C)nc2n1 [PD173074] (first compound 1 µM, partner dose 0.1 µM)",113,49.8,39,49.3,83,27.2,49.2,164,35.4,95.5,70.7,107,72,74,570
"Cn1c(Nc2ccc(C(F)(F)F)cc2)nc2cc(Oc3ccnc(-c4ncc(C(F)(F)F)[nH]4)c3)ccc21 + CCCCCCCCCCCC1=C(O)C(=O)C=C(O)C1=O [Embelin] (first compound 0.08 µM, partner dose 1.2 µM)",120,133,250,216,383,47,144,429,411,368,136,135,63.5,136,196
"CO[C@@H]1[C@H](N(C)C(=O)c2ccccc2)C[C@H]2O[C@]1(C)n1c3ccccc3c3c4c(c5c6ccccc6n2c5c31)C(=O)NC4 [Midostaurin] + COc1ccc(COc2ccc(Cc3cnc(N)nc3N)cc2OC)cc1 [GW2580] (first compound 0.08 µM, partner dose 1 µM)",125,355,94.7,19.1,108,243,78.6,61.6,168,153,228,110,71.6,103,66.9
"Cn1c(Nc2ccc(C(F)(F)F)cc2)nc2cc(Oc3ccnc(-c4ncc(C(F)(F)F)[nH]4)c3)ccc21 + COc1cc(N2CCC(N3CCN(C)CC3)CC2)ccc1Nc1ncc(Cl)c(Nc2ccccc2S(=O)(=O)C(C)C)n1 [NVP-TAE684] (first compound 0.08 µM, partner dose 0.08 µM)",54.2,140,213,177,142,102,39.1,462,151,889,95.7,154,153,120,138
"C=CCn1c(=O)c2cnc(Nc3ccc(N4CCN(C)CC4)cc3)nc2n1-c1cccc(C(C)(C)O)n1 + COc1ccc2c(c1)CCC1C2CCC2(C)C(NCCCCCCN3C(=O)C=CC3=O)CCC12 [U73122] (first compound 0.02 µM, partner dose 0.4 µM)",88.9,57.3,78.6,87.5,127,115,187,268,90,85.8,54.7,233,63.4,127,80.3
"Cn1cncc1[C@@](N)(c1ccc(Cl)cc1)c1ccc2c(c1)c(-c1cccc(Cl)c1)cc(=O)n2C [tipifarnib] + COc1cc(N2CCC(N3CCN(C)CC3)CC2)ccc1Nc1ncc(Cl)c(Nc2ccccc2S(=O)(=O)C(C)C)n1 [NVP-TAE684] (first compound 0.01 µM, partner dose 0.08 µM)",73.5,199,24,71.2,99.1,125,149,204,96.8,502,171,475,81.9,160,471
"COCC[n+]1c2c(n(Cc3cnccn3)c1C)C(=O)c1ccccc1C2=O + O=c1cc(-c2cccc3c2Sc2ccccc2S3)oc(N2CCOCC2)c1 [KU55933] (first compound 0.0004 µM, partner dose 1 µM)",210,112,218,45.4,103,14.5,76,99.8,79.2,49.1,100,114,76.9,83.3,27.2
"O=C(CCCCCCC(=O)Nc1ccccc1)NO [vorinostat] + CCN(CC)CCCCNc1ncc2cc(-c3cc(OC)cc(OC)c3)c(NC(=O)NC(C)(C)C)nc2n1 [PD173074] (first compound 0.08 µM, partner dose 0.1 µM)",94.8,106,85.5,173,108,43,34.9,119,40.7,115,85.4,96.1,134,193,214

# Already shown: entries from further up.
SMILES,cleaved PARP positive nuclei fraction (MZ2-MEL) [%],cleaved PARP positive nuclei fraction (MeWo) [%],cleaved PARP positive nuclei fraction (RPMI7951) [%],cleaved PARP positive nuclei fraction (RVH-421) [%],cleaved PARP positive nuclei fraction (SkMel28) [%],cleaved PARP positive nuclei fraction (SkMel30) [%],cleaved PARP positive nuclei fraction (SkMel5) [%],cleaved PARP positive nuclei fraction (UACC257) [%],cleaved PARP positive nuclei fraction (UACC62) [%],cleaved PARP positive nuclei fraction (WM115) [%],cleaved PARP positive nuclei fraction (WM1716) [%],cleaved PARP positive nuclei fraction (WM1745) [%],cleaved PARP positive nuclei fraction (WM3526) [%],cleaved PARP positive nuclei fraction (WM3619) [%],cleaved PARP positive nuclei fraction (WM451Lu) [%]
"C#Cc1cccc(Nc2ncnc3cc(OCCOC)c(OCCOC)cc23)c1 [erlotinib] + c1cc(-c2cnn3cc(-c4ccc(OCCN5CCCCC5)cc4)cnc23)ccn1 [Dorsomorphin] (first compound 0.8 µM, partner dose 0.4 µM)",87.4,37.1,253,98,104,29.5,32.1,221,183,202,174,125,154,94.7,79.1
"OCCn1cc(-c2cnc3nnn(Cc4ccc5ncccc5c4)c3n2)cn1 + O=c1cc(-c2cccc3c2Sc2ccccc2S3)oc(N2CCOCC2)c1 [KU55933] (first compound 1 µM, partner dose 1 µM)",81.6,84,169,94.4,77.3,164,241,61,150,66.2,115,106,153,186,81.5
"C#Cc1cccc(Nc2ncnc3cc(OCCOC)c(OCCOC)cc23)c1 [erlotinib] + N#Cc1c(O)c2c(-c3ccc(-c4ccccc4O)cc3)csc2[nH]c1=O [A769662] (first compound 0.8 µM, partner dose 2 µM)",331,56.3,75.9,52.7,137,208,26.9,106,134,75.8,69.2,112,34.9,66.7,37.3
"C[C@@H]1CCN(C(=O)CC#N)C[C@@H]1N(C)c1ncnc2[nH]ccc12 + CCCCCCCCCCCC1=C(O)C(=O)C=C(O)C1=O [Embelin] (first compound 1 µM, partner dose 1.2 µM)",85.7,154,64.4,22.3,130,53.1,29.7,83.3,25.4,76.4,79.4,91.3,64,79.8,135
